Assay results taken from PMC5429606.
These are yes or no findings as the source states them, for the method shown. Binding seen in cells or lysates may run through a third protein. Some results given as binding are weak or reduced against the parent protein; the word gives no strength. One block for each binder: values may come before it.

Molecular target: T1, peroxisome proliferator-activated receptor gamma coactivator 1α (PGC-1α) (mouse (in TCMK-1 cells)) (UniProt O70343)
T1 sequence: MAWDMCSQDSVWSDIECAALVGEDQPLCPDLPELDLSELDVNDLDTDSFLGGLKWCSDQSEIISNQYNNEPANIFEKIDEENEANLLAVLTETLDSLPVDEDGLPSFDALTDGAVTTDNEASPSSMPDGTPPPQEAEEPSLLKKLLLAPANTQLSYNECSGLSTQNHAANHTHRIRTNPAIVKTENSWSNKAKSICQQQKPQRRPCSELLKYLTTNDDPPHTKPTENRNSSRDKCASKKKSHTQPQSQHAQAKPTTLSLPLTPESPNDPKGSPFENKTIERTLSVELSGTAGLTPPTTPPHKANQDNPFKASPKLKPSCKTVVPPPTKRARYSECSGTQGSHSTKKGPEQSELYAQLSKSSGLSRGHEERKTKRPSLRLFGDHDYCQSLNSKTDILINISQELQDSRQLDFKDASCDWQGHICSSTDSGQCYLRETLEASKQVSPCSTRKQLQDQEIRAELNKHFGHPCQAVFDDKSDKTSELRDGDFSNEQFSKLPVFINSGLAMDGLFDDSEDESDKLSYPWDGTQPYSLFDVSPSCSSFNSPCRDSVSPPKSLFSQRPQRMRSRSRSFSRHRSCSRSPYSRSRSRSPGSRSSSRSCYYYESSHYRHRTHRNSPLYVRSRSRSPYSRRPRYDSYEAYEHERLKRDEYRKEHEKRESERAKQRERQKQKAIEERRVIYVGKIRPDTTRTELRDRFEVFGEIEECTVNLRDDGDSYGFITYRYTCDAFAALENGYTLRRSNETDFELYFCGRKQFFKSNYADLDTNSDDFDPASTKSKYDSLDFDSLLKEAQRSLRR
Test: co-IP; in TCMK-1 cells; the sentence does not name the method (immunoprecipitation is the only interaction method in the methods); bait not told

- binding: binds
B1: estrogen receptor-related receptor alpha (ERRα) (protein, UniProt O08580 1-422)
chain: MSSQVVGIEPLYIKAEPASPDSPKGSSETETEPPVTLASGPAPARCLPGHKEEEDGEGAGSGEQGSGKLVLSSLPKRLCLVCGDVASGYHYGVASCEACKAFFKRTIQGSIEYSCPASNECEITKRRRKACQACRFTKCLRVGMLKEGVRLDRVRGGRQKYKRRPEVDPLPFPGPFPAGPLAVAGGPRKTAPVNALVSHLLVVEPEKLYAMPDPASPDGHLPAVATLCDLFDREIVVTISWAKSIPGFSSLSLSDQMSVLQSVWMEVLVLGVAQRSLPLQDELAFAEDLVLDEEGARAAGLGDLGAALLQLVRRLQALRLEREEYVLLKALALANSDSVHIEDAEAVEQLREALHEALLEYEAGRAGPGGGAERRRAGRLLLTLPLLRQTAGKVLAHFYGVKLEGKVPMHKLFLEMLEAMMD

- binding: binds
B2: nuclear factor erythroid 2 (NF-E2)-related factor 2 (NRF2) (protein, UniProt Q60795 1-597)
chain: MMDLELPPPGLQSQQDMDLIDILWRQDIDLGVSREVFDFSQRQKDYELEKQKKLEKERQEQLQKEQEKAFFAQFQLDEETGEFLPIQPAQHIQTDTSGSASYSQVAHIPKQDALYFEDCMQLLAETFPFVDDHESLALDIPSHAESSVFTAPHQAQSLNSSLEAAMTDLSSIEQDMEQVWQELFSIPELQCLNTENKQLADTTAVPSPEATLTEMDSNYHFYSSISSLEKEVGNCGPHFLHGFEDSFSSILSTDDASQLTSLDSNPTLNTDFGDEFYSAFIAEPSDGGSMPSSAAISQSLSELLDGTIEGCDLSLCKAFNPKHAEGTMEFNDSDSGISLNTSPSRASPEHSVESSIYGDPPPGFSDSEMEELDSAPGSVKQNGPKAQPAHSPGDTVQPLSPAQGHSAPMRESQCENTTKKEVPVSPGHQKAPFTKDKHSSRLEAHLTRDELRAKALHIPFPVEKIINLPVDDFNEMMSKEQFNEAQLALIRDIRRRGKNKVAAQNCRKRKLENIVELEQDLGHLKDEREKLLREKGENDRNLHLLKRRLSTLYLEVFSMLRDEDGKPYSPSEYSLQQTRDGNVFLVPKSKKPDTKKN
